Data: the supplement of paper PMC6411743
± gives the standard deviation of the averaged measurements. Only a part is listed here, and it is no random draw.

By UniProt entry, the sequences of proteins in these tests, tags left out. Where a name states a change or a piece, a line headed by the entry shows the natural chain unless it says otherwise.
UniProt Q9P2W9: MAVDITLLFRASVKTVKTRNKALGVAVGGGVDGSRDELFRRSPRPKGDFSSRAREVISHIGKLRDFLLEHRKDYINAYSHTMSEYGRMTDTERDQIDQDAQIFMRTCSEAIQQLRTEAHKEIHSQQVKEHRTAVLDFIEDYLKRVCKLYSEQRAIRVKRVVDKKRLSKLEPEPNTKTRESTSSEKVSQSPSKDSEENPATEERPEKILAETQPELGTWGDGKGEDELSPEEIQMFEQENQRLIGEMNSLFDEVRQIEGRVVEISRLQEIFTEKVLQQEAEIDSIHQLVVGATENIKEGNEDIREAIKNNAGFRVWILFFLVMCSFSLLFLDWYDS
UniProt Q8IVH2: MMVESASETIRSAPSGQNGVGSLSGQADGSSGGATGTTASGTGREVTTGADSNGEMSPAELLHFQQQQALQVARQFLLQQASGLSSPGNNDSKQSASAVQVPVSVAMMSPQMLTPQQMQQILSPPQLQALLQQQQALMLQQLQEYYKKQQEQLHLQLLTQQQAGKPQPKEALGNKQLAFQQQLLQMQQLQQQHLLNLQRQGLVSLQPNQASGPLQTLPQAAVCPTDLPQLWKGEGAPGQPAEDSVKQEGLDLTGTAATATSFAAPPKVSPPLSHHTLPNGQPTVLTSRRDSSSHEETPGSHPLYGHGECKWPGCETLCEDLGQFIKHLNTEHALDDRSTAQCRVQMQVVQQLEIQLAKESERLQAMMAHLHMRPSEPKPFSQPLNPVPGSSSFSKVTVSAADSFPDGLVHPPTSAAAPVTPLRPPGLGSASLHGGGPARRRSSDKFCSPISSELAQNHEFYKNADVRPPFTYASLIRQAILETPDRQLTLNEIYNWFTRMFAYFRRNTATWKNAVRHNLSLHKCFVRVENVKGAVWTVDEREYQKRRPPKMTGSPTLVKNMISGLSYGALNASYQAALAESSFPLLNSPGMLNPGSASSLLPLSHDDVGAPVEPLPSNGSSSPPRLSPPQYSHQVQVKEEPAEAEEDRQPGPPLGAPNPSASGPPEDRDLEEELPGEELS
UniProt Q8N4C6: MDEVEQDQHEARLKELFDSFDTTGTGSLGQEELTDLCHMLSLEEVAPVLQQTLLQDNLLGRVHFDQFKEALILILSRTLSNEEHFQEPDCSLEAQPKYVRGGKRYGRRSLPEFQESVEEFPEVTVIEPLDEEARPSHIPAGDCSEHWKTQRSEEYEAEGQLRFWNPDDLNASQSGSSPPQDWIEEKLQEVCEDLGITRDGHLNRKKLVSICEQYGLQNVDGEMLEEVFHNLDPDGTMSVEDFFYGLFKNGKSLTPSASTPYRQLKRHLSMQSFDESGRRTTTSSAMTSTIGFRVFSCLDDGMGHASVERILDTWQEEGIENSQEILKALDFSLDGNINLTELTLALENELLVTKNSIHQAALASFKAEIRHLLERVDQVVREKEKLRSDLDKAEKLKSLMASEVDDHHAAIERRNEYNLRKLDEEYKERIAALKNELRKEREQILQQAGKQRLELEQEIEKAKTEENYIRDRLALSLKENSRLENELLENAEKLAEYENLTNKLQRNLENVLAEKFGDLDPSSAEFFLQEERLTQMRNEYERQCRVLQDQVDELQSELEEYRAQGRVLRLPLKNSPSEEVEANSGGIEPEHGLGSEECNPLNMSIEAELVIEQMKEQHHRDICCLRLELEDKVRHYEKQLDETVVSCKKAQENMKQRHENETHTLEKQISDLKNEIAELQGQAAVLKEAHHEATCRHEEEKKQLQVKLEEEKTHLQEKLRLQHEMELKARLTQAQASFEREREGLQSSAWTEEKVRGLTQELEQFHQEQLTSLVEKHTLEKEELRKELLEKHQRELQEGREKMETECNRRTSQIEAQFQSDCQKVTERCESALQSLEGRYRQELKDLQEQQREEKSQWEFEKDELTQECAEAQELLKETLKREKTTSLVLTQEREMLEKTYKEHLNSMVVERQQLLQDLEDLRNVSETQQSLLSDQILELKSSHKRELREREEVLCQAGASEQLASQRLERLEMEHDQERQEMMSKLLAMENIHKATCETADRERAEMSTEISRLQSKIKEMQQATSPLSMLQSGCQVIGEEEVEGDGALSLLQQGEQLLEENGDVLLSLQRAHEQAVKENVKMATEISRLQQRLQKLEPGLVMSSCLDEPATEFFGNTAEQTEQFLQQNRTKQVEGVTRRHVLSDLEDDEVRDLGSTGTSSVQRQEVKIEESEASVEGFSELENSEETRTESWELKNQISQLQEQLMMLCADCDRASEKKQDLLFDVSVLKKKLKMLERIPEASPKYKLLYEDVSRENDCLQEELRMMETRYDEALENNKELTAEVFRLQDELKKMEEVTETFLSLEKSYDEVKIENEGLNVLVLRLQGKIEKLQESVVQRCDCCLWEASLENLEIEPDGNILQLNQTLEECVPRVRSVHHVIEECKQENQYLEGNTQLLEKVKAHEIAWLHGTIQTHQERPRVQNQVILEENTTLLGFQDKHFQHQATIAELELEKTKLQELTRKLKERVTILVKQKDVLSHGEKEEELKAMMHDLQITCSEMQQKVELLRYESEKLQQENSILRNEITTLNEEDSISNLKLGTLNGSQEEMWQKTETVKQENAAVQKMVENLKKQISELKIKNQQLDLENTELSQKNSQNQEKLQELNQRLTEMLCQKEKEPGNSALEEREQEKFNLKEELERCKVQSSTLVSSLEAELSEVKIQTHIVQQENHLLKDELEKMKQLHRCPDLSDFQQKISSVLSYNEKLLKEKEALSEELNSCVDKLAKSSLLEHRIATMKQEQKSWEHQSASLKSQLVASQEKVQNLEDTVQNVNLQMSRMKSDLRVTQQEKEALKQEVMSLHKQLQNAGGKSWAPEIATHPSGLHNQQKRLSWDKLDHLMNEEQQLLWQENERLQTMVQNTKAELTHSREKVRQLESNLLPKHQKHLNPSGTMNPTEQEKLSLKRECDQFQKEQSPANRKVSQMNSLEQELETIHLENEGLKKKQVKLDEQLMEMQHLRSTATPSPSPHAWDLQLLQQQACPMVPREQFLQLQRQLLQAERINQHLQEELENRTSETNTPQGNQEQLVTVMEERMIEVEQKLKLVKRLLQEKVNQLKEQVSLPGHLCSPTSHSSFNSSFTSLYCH
UniProt A9UHW6: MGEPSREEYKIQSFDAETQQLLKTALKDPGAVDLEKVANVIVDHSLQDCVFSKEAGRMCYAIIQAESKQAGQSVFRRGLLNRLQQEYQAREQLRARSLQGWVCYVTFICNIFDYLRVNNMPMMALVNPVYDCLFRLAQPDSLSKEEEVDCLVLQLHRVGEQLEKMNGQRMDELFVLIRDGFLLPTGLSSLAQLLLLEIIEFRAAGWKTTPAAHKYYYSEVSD
UniProt Q13506: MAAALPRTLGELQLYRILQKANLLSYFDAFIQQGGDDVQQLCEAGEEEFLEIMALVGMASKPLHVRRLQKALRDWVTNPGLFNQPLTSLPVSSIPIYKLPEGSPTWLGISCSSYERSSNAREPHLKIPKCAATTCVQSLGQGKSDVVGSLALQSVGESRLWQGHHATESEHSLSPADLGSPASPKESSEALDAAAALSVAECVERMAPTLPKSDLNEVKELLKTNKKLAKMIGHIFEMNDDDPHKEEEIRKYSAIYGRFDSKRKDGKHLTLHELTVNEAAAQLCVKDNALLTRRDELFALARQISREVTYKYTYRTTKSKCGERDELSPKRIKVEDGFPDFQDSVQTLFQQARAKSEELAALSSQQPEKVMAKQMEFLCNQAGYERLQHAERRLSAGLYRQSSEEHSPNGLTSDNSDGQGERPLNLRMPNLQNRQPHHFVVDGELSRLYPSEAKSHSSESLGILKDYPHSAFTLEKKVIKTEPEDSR
UniProt A8MWD9, whole entry, looked up: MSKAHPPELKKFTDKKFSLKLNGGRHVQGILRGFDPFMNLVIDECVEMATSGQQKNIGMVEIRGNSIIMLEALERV
UniProt P62308, whole entry, looked up: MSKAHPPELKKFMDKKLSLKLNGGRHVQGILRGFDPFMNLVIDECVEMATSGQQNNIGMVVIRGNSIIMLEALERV
UniProt P41732: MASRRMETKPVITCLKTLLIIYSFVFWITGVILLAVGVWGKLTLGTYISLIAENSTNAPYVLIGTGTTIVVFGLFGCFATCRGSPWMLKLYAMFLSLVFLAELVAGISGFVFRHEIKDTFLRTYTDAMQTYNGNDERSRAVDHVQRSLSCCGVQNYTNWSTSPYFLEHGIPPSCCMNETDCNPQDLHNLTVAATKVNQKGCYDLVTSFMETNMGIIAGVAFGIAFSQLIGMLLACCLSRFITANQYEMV
UniProt A0JNW5: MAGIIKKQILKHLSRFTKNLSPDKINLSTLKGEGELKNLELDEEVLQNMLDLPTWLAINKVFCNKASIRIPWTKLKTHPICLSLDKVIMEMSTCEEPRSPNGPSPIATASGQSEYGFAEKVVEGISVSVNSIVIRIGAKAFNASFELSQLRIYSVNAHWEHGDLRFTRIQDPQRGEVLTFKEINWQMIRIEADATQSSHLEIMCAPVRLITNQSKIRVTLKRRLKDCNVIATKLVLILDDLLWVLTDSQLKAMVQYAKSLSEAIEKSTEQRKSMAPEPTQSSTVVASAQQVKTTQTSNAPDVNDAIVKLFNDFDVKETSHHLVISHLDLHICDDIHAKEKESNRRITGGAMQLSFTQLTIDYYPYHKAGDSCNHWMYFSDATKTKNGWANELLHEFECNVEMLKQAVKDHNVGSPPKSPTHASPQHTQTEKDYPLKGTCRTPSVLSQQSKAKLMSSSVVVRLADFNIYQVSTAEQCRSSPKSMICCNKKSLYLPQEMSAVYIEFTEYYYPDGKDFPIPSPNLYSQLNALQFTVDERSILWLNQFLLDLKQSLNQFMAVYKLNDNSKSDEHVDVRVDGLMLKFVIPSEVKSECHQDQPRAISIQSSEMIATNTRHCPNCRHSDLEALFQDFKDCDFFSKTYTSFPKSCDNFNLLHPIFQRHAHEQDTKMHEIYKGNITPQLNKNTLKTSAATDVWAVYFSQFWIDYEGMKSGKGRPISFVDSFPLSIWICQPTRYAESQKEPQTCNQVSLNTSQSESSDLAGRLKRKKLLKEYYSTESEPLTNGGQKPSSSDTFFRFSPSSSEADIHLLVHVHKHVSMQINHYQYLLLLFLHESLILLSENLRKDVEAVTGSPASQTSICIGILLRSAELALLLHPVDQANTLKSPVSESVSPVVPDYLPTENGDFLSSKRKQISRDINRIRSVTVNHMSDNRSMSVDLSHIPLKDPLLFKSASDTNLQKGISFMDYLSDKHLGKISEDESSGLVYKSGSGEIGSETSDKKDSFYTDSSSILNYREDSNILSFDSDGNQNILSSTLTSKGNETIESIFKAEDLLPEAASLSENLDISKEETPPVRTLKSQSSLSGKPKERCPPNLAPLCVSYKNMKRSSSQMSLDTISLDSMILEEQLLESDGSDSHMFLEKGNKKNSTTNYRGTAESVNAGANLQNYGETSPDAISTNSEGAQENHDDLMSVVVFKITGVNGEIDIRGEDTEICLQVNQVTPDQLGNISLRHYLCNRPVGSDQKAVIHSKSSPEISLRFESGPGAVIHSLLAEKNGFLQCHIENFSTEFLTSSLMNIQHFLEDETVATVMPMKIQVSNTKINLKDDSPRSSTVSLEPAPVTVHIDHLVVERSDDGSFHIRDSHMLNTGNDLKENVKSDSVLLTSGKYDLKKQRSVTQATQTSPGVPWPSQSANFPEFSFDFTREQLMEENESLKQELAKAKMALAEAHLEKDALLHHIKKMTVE
UniProt Q9C0K0: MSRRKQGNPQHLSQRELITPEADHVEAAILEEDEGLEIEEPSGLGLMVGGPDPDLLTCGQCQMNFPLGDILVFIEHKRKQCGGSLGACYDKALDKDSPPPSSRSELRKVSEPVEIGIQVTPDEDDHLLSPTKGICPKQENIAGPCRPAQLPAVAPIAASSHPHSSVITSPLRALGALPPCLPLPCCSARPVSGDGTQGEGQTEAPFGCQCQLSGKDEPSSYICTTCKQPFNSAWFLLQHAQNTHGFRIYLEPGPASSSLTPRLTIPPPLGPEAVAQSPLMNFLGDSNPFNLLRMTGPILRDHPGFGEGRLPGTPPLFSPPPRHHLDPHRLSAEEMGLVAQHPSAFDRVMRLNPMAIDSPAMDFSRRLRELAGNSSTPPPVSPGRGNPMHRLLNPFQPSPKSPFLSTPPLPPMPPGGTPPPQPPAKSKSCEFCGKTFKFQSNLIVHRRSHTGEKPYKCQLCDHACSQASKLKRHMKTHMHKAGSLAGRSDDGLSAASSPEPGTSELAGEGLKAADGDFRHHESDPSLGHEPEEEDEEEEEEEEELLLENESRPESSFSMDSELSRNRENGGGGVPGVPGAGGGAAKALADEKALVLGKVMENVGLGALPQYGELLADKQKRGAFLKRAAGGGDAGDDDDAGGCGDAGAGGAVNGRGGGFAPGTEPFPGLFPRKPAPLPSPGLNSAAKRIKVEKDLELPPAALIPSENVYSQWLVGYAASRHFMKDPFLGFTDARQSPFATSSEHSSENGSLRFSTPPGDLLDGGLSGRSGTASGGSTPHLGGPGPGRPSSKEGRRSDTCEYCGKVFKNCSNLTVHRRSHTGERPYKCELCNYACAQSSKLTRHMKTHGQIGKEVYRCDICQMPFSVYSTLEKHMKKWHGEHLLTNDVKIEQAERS

Compound: Nc1ncnc2c1ncn2[C@@H]1O[C@H](COP(=O)(O)OP(=O)(O)OP(=O)(O)O)[C@@H](O)[C@H]1O [adenosine triphosphate]
Test: NP40-soluble protein abundance relative to vehicle (solubility fold change) (ratio); higher = more soluble protein in presence of ATP
Summary of the method: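 Across three independent experiments, values are fold changes against the detergent-processed vehicle for each replicate, based on vsn-normalised intensities. The samples were Jurkat crude lysate treated with eight concentrations (0.1 to 10 mM) for 10 min at room temperature and then 3 min at 37 °C. Lysate was solubilised with 0.8% NP40 and benzonase, ultracentrifuged, and the supernatant analysed by TMT-labelled LC-MS/MS.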

Target	NP40-soluble protein abundance (concentration: 1mM)	NP40-soluble protein abundance (concentration: 2mM)	NP40-soluble protein abundance (concentration: 4mM)	NP40-soluble protein abundance (concentration: 6mM)	NP40-soluble protein abundance (concentration: 8mM)	NP40-soluble protein abundance (concentration: 10mM)
C9JSZ1 and related entries (UniProt Q96AE4)	0.95 ± 0.059	0.952 ± 0.019	0.927 ± 0.0085	0.985 ± 0.03	0.914 ± 0.017	0.893 ± 0.041
A0A0G2JNW7|Q9Y666 (UniProt Q9Y666)	0.949 ± 0.03	0.965 ± 0.031	0.972 ± 0.029	0.96 ± 0.036	0.952 ± 0.026	0.981 ± 0.026
D6RF48 and related entries (UniProt Q9P2W9)	0.94 ± 0.052	0.947 ± 0.051	0.938 ± 0.045	0.969 ± 0.043	0.925 ± 0.062	0.945 ± 0.035
B7ZBM3 and related entries (UniProt Q8IVH2)	0.995 ± 0.085	1.02 ± 0.065	0.99 ± 0.065	1.03 ± 0.15	0.979 ± 0.098	0.989 ± 0.065
C9J066 and related entries (UniProt Q8N4C6)	1.01 ± 0.024	0.984 ± 0.037	1.02 ± 0.03	1.05 ± 0.024	1.01 ± 0.023	1.02 ± 0.024
UniProt A9UHW6 and related entries	0.99 ± 0.046	0.967 ± 0.02	0.957 ± 0.018	0.951 ± 0.039	0.964 ± 0.049	0.881 ± 0.1
B8ZZS2 and related entries (UniProt Q13506)	1.05 ± 0.14	1.05 ± 0.079	1.02 ± 0.14	0.941 ± 0.11	0.986 ± 0.12	1 ± 0.064
A8MWD9 and related entries (UniProt P62308+A8MWD9)	1.27 ± 0.019	1.37 ± 0.015	1.44 ± 0.026	1.53 ± 0.03	1.59 ± 0.15	1.52 ± 0.083
C4B7M2 and related entries (UniProt Q96JI7)	1.01 ± 0.14	0.979 ± 0.13	1.03 ± 0.15	0.907 ± 0.089	1.06 ± 0.084	1 ± 0.23
UniProt A6NJ78	0.987 ± 0.015	0.955 ± 0.099	0.931 ± 0.055	0.96 ± 0.035	0.949 ± 0.071	0.922 ± 0.19
B4DDG0 and related entries (UniProt P41732+B4E171+B4DDG0)	0.924 ± 0.069	0.975 ± 0.046	0.944 ± 0.023	0.928 ± 0.068	0.944 ± 0.072	0.876 ± 0.072
UNC119B (UniProt A6NIH7)	1.03 ± 0.056	1.03 ± 0.055	1.02 ± 0.096	1.02 ± 0.095	0.985 ± 0.052	0.999 ± 0.059
C5orf51 (UniProt A6NDU8)	1.02 ± 0.013	1.02 ± 0.099	1.01 ± 0.054	0.97 ± 0.012	0.974 ± 0.055	0.937 ± 0.062
UniProt A0JNW5 and related entries	1.04 ± 0.09	1.06 ± 0.11	1.08 ± 0.11	0.975 ± 0.08	1.02 ± 0.099	1.02 ± 0.09
D3YTK1 and related entries (UniProt Q9C0K0)	1.1 ± 0.058	1.1 ± 0.074	1.13 ± 0.08	1.15 ± 0.17	1.16 ± 0.098	1.2 ± 0.11

Complete entries as entered above. Order of values: NP40-soluble protein abundance (concentration: 1mM)	NP40-soluble protein abundance (concentration: 2mM)	NP40-soluble protein abundance (concentration: 4mM)	NP40-soluble protein abundance (concentration: 6mM)	NP40-soluble protein abundance (concentration: 8mM)	NP40-soluble protein abundance (concentration: 10mM)
A8MWD9 and related entries (UniProt P62308+A8MWD9) is entered as 1.27 ± 0.019	1.37 ± 0.015	1.44 ± 0.026	1.53 ± 0.03	1.59 ± 0.15	1.52 ± 0.083
UniProt A9UHW6 and related entries is entered as 0.99 ± 0.046	0.967 ± 0.02	0.957 ± 0.018	0.951 ± 0.039	0.964 ± 0.049	0.881 ± 0.1
